Assay results as given in PubChem BioAssay AID2685 (National Center for Advancing Translational Sciences (NCATS), 2010).
The other results are listed elsewhere or left out. Shown are side measurements of this screen, not its main read-out; they come without a call. The list favours compounds with an active or inconclusive main result. Potencies come from curve fits of mixed quality, noted in brackets.

Assay: qHTS Assay for Lipid Storage Modulators in Drosophila S3 Cells;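 on cell number change: cells counted by Cell Tracker Red CMTPX staining in the red channel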
Details: BODIPY lipid droplet fluorescence, 18-24 h; for cell number change: measured here: cell count max response, cells fed with added oleic acid
Method in brief: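 Drosophila S3 cells loaded with oleic acid (400 uM, as added) and compounds at several concentrations; lipid droplets imaged by 488-nm laser-scanning cytometry, 500–530 nm intensity and object ratio to cell channel. Percent activity normalized to 20 uM Triacsin C.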

[1] = measured here: lipid fluorescence (Fed channel) AC50, cells fed with added oleic acid
[2] = measured here: cell number channel AC50, cells fed with added oleic acid

| Compound | cell number change | AC50 [1] | AC50 [2] |
| --- | --- | --- | --- |
| C=CCN1CC(C(=O)N2CCC(Cc3ccc(Cl)cc3)(C(=O)OCC)CC2)CC1=O (configuration not stated) | 5.73% | – | – |
| CCOC(=O)N1CCC(NC(=O)C(Cc2ccccc2)NC(=O)c2ccco2)CC1 (configuration not stated) | 54.4% | 6.51 µM [falling, single point] | – |
| COc1cc(OC)cc(C2C(C#N)=C(N)Oc3n[nH]c(-c4cccnc4)c32)c1 (configuration not stated) | -22.7% | 8.2 µM [rising, partial curve] | – |
| O=C(CN1CCSC1=O)N1CCN(S(=O)(=O)c2ccc(Cl)cc2)CC1 | -11.4% | 10.3 µM [rising, partial curve] | – |
| COC(=O)c1cccc(NC(=O)CCNC(=O)c2ccc([N+](=O)[O-])cc2)c1 | – | – | 0.0731 µM [rising, full curve, poor fit] |
| COc1ccc(N(C(=O)c2ccc(Cl)cc2)C2=CC3CCC(C2)N3C)cc1 (configuration not stated) | 2.49% | 3.66 µM [falling, single point] | – |
| CC(NS(=O)(=O)c1ccc(F)cc1)C(=O)Nc1ccc2c(c1)OCCO2 (configuration not stated) | -16.8% | 29.1 µM [falling, single point] | – |
| O=C(NCc1ccc(F)cc1)c1cc(-c2ccncc2)nc2ccccc12 | 16.2% | 0.651 µM [rising, partial curve, poor fit] | – |
| CCOc1ccc(C(=S)NC2CCCCC2)cc1 | -30% | 16.4 µM [falling, partial curve, poor fit] | – |
| Cc1nc(-c2ccc(F)cc2)c(CC(=O)N2CCN(S(=O)(=O)c3cccc(Cl)c3)CC2)s1 | – | – | 3.26 µM [rising, single point] |
| O=C(Nc1ccc2nc(-c3ccco3)[nH]c2c1)c1ccco1 | 4.84% | 16.4 µM [falling, partial curve, poor fit] | 6.51 µM [rising, single point] |
| CCC(C)(C)C(=O)O | -27.5% | 0.13 µM [rising, full curve, poor fit] | – |
| Cc1ccc(Cl)cc1N1CCN(C(=O)Cn2ncn3cccc3c2=O)CC1 | 14.4% | 3.26 µM [rising, partial curve] | – |
| COc1cccc(/C=N/NC(=O)C(=O)NCc2ccco2)c1OC | 15.9% | 0.184 µM [falling, full curve] | 0.13 µM [falling, full curve] |
| CN(CC(=O)NCCc1ccc(S(N)(=O)=O)cc1)S(=O)(=O)/C=C/c1ccccc1 | -7.92% | – | – |
| CCNC(=S)Nc1ccc(C)c(Cl)c1 | 36.5% | 6.51 µM [rising, partial curve] | 3.26 µM [rising, partial curve] |
| O=C(CSc1nc(C(F)(F)F)cc(=O)[nH]1)N1CCOCC1 | -22% | 20.6 µM [falling, single point] | – |
| O=C(COC(=O)C1CC1)Nc1ccc(OC(F)F)cc1 | 16.8% | – | – |
| CC(C)=CC1C(C(=O)Nc2ccc(S(=O)(=O)N3CCOCC3)cc2)C1(C)C (configuration not stated) | -45.3% | 29.1 µM [falling, single point] | 16.4 µM [falling, single point] |

| Compound | cell number change | AC50 [1] | AC50 [2] |
| --- | --- | --- | --- |
| Cn1c(=O)c2c(nc(CN3CCN(C(=O)c4ccco4)CC3)n2Cc2ccc(Cl)cc2)n(C)c1=O | 2.9% | – | 0.259 µM [rising, partial curve, poor fit] |
| CCCc1nnc(NC(=O)CCC(=O)N2CCN(S(=O)(=O)c3ccc(C)cc3)CC2)s1 | -30.7% | 1.84 µM [falling, full curve] | 2.06 µM [falling, full curve] |
| Nc1nnnn1/N=C/c1ccc(Br)cc1 | 13.2% | 29.1 µM [rising, single point] | – |
| CC(=O)COc1ccccc1OC(=O)c1ccco1 | 14% | 14.6 µM [rising, single point] | – |
| O=c1[nH]cccc1-c1nc2cc(Cl)ccc2n1Cc1ccccc1 | -3.55% | – | – |
| CNC(=S)Nc1ccc(C)c(NC(=S)NC)c1 | -9.89% | 0.326 µM [falling, partial curve, poor fit] | – |
| COc1ccccc1CC(=O)Nc1ccc(S(=O)(=O)N(C)C2CCN(C)CC2)cc1 | 22.6% | 0.82 µM [rising, full curve, poor fit] | – |
| CC(NC(=O)CCl)c1ccccc1Br (configuration not stated) | -9.34% | 3.26 µM [falling, partial curve] | – |
| O=C(c1cccnc1)n1nc(-c2ccco2)nc1NCc1cccs1 | 37.9% | 7.94 µM [rising, partial curve, poor fit] | 8.91 µM [rising, partial curve] |
| O=C(Nc1ccc(-c2cnco2)cc1)c1ccccc1 | 21.8% | 0.00461 µM [rising, full curve, poor fit] | 0.461 µM [rising, full curve, poor fit] |
| CN(C)c1cccc(C(=O)N(C)C2CCCN(Cc3ccccc3F)C2)c1 (configuration not stated) | -4.67% | 29.1 µM [rising, single point] | – |
| CC(C)C(=O)NC(=S)Nc1ccccc1N1CCN(C(=O)c2ccc(Cl)cc2)CC1 | -66.8% | 6.51 µM [falling, partial curve] | 8.2 µM [falling, partial curve] |
| CCC(CC)C(=O)c1c[nH]c(C(=O)NCCCn2ccnc2)c1 | -0.234% | – | 6.51 µM [falling, single point] |
| COCCCn1[nH]c2c3c(ccc2c1=O)C(=O)c1ccccc1C3=O | -16% | 20.6 µM [rising, partial curve] | – |
| CN1CCN(C(=O)c2cc3c(s2)-c2ccccc2S(=O)(=O)C3)CC1 | 54.8% | 0.92 µM [rising, partial curve] | 2.31 µM [rising, partial curve] |
| Cc1cc(NC(C)c2ccccc2)n2ncc(-c3ccccc3)c2n1 (configuration not stated) | 13.1% | 5.8 µM [rising, partial curve] | – |
| CCOC(=O)N1CCN(C(=O)c2c(Cl)cnn2C)CC1 | -5.95% | 29.1 µM [rising, single point] | – |
| CC(Oc1ccc2c(c1)c1ccnc3c4ccccc4c(=O)n2c13)C(=O)NCCN1CCOCC1 (configuration not stated) | -7.12% | 0.651 µM [falling, full curve, poor fit] | – |

As a working copy, three of the compounds above:

| Compound | cell number change | AC50 [1] | AC50 [2] |
| --- | --- | --- | --- |
| COc1ccc(N(C(=O)c2ccc(Cl)cc2)C2=CC3CCC(C2)N3C)cc1 (configuration not stated) | 2.49% | 3.66 µM [falling, single point] | – |
| CC(NS(=O)(=O)c1ccc(F)cc1)C(=O)Nc1ccc2c(c1)OCCO2 (configuration not stated) | -16.8% | 29.1 µM [falling, single point] | – |
| O=C(NCc1ccc(F)cc1)c1cc(-c2ccncc2)nc2ccccc12 | 16.2% | 0.651 µM [rising, partial curve, poor fit] | – |
